Assay results: US20160303245A1, “FATTY ACID DERIVATIVES OF DIMERIC INHIBITORS OF PSD-95” (UNIVERSITY OF COPENHAGEN, priority 2013, published 2016)
Part of at least one peptide drawing is inferred or uncertain, most often the ends. Some entries share one result that the patent states for a list of compounds.

Sequences of proteins named here, by UniProt entry; tags and fusion partners are left off. Residues count along the entry.
UniProt P78352, 61-249 limits assumed: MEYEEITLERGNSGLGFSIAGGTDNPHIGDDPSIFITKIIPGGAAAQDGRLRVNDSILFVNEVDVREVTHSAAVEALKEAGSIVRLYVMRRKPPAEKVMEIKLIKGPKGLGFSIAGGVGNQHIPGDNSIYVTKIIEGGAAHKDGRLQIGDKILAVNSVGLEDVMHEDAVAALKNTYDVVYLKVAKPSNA

Columns and labels:
[1] = molecular target: PSD-95 PDZ1-2 (Homo sapiens, UniProt P78352); experiment: In vitro fluorescence polarization (FP) competition binding assay, in TBS and modified with 1% HSA; settings: for Affinity loss for PSD-95 PDZ1-2 when FP measured in TBS+HSA: TBS+HSA versus TBS; for Decrease in affinity for PSD-95, fu-corrected data compared to FP data recorded in TBS: fu-corrected TBS+HSA versus TBS
Description: Affinity to PSD-95 was measured using an in vitro fluorescence polarization (FP) assay as described by Bach et al (PNAS USA, 2012, 109, 3317-3322). First, a saturation binding curve was obtained to determine KD values for the interaction between a dimeric fluorescent probe and PSD-95 PDZ1-2. Increasing concentrations of PDZ1-2 were added to a constant concentration (0.5 nM) of the probe. The fluorescence polarization of the samples was measured at excitation/emission wavelengths of 635/670 nm and the FP values were fitted to a one site binding model using the program GraphPad Prism. […] The FP values were fitted to a one site competition (variable slope) model in GraphPad Prism. The resulting IC50 were converted to competition inhibition constants, Ki values, as described (Nikolovska-Coleska et al, Anal Biochem, 2004, 332, 261-273). The modified FP assay was conducted as described above with 1% HSA in the assay. The synthesized FA-linked dimeric ligands were evaluated for their affinity to PSD-95 PDZ1-2 in the FP assay. […] We first measured the affinities using a simple tris-buffered saline (TBS) buffer (Table 2, FIG. 3A); but furthermore, we investigated if HSA influenced the ability of the FA-linked dimers to bind PSD95 PDZ1-2 by conducting the FP assay with HSA present in the assay buffer (Table 2, FIG. 3B). […] For a traditional small-molecule drug, it is commonly accepted that the unbound fraction of the drug is free to diffuse across membranes and exerts the physiological effect by interacting with its target (Berezhkovskiy et al, J Pharm Sci 2007, 96, 249-257). I.e. if the drug is bound to another molecule, then it cannot interact with the target at the same time.

[2] = In vivo pharmacokinetics, blood concentration by LC-MS/MS after single s.c. bolus injection; design: species or system male Wistar rats; settings: rat
Excerpt: To determine the pharmacokinetic properties of FA-linked compounds we measured the concentration of selected compounds in blood by LC-MS/MS following a single subcutaneous (s.c.) bolus injection in male Wistar rats (FIG. 5). From this, it was apparent that all FA-linked dimeric ligands have longer T1/2 and greater Tmax than dimeric ligand without FA (UCCB01-125) (Table 4 and FIG. 5). […] The increased Tmax is explained by a prolonged absorption from the injection site. Overall, these properties enable administration by s.c.depot injections and thereby slow and consistent release of compound into the blood, whereby fewer administrations are needed to maintain pharmaceutical relevant blood concentrations.

Row | Compound | Affinity loss for PSD-95 PDZ1-2 when FP measured in TBS+HSA [1] [fold] | Decrease in affinity for PSD-95, fu-corrected data compared to FP data recorded in TBS [1] | Increase of T1/2 relative to UCCB01-125 [2] [fold]
1 | CCCCCCCCCCCCCCCCCC(=O)NCCCC(=O)N(CCOCCOCCC(=O)N[C@H](C(=O)N[C@@H](CCC(=O)O)C(=O)N[C@H](C(=O)N[C@@H](C)C(=O)N[C@H](C(=O)O)C(C)C)[C@@H](C)O)[C@@H](C)CC)CCOCCOCCC(=O)N[C@H](C(=O)N[C@@H](CCC(=O)O)C(=O)N[C@H](C(=O)N[C@@H](C)C(=O)N[C@H](C(=O)O)C(C)C)[C@@H](C)O)[C@@H](C)CC [Compound 3] | 50 | 4-5 fold | –
2 | CCCCCCCCCCCCCCCCCC(=O)NCCCCC(=O)N(CCOCCOCCC(=O)N[C@H](C(=O)N[C@@H](CCC(=O)O)C(=O)N[C@H](C(=O)N[C@@H](C)C(=O)N[C@H](C(=O)O)C(C)C)[C@@H](C)O)[C@@H](C)CC)CCOCCOCCC(=O)N[C@H](C(=O)N[C@@H](CCC(=O)O)C(=O)N[C@H](C(=O)N[C@@H](C)C(=O)N[C@H](C(=O)O)C(C)C)[C@@H](C)O)[C@@H](C)CC [Compound 11] | 50 | – | –
3 | CCCCCCCCCCCCCCCCCC(=O)N[C@@H](CCC(=O)N(CCOCCOCCC(=O)N[C@H](C(=O)N[C@@H](CCC(=O)O)C(=O)N[C@H](C(=O)N[C@@H](C)C(=O)N[C@H](C(=O)O)C(C)C)[C@@H](C)O)[C@@H](C)CC)CCOCCOCCC(=O)N[C@H](C(=O)N[C@@H](CCC(=O)O)C(=O)N[C@H](C(=O)N[C@@H](C)C(=O)N[C@H](C(=O)O)C(C)C)[C@@H](C)O)[C@@H](C)CC)C(=O)O [Compound 7] | 50 | 4-5 fold | > 16
4 | CC[C@H](C)[C@H](NC(=O)CCOCCOCCN(CCOCCOCCC(=O)N[C@H](C(=O)N[C@@H](CCC(=O)O)C(=O)N[C@H](C(=O)N[C@@H](C)C(=O)N[C@H](C(=O)O)C(C)C)[C@@H](C)O)[C@@H](C)CC)C(=O)CCCNC(=O)CCCCCCCCCCCCCCCCC(=O)O)C(=O)N[C@@H](CCC(=O)O)C(=O)N[C@H](C(=O)N[C@@H](C)C(=O)N[C@H](C(=O)O)C(C)C)[C@@H](C)O [Compound 4] | – | – | > 16
